Earlier results in patent US20100022556A1, “Therapeutic combinations comprising a long acting dihydropyridine calcium-channel blocker and a statin” (CHIESI FARMACEUTICI S.P.A., priority 2005, published 2010).
At least one compound was matched to its structure with a doubt left.

Tested on: CRP
Details: cited from earlier work

SMILES | effect on CRP levels in the coronary sinus (patients with angina pectoris, long-term treatment) | effect on CRP levels (hypertensive patients)
COC(=O)C1=C(C)NC(C)=C(C(=O)OC)C1c1ccccc1[N+](=O)[O-] [nifedipine] | decreases | 
CCOC(=O)C1=C(COCCN)NC(C)=C(C(=O)OC)C1c1ccccc1Cl (centres unmarked) [amlodipine] |  | does not significantly modify
